{
  "sequences": {"note": "Amino acid sequences for entries named in this document (tags omitted). A change or cut given only in a name is not applied to a line headed by its entry.", "UniProt Q5JTH9": "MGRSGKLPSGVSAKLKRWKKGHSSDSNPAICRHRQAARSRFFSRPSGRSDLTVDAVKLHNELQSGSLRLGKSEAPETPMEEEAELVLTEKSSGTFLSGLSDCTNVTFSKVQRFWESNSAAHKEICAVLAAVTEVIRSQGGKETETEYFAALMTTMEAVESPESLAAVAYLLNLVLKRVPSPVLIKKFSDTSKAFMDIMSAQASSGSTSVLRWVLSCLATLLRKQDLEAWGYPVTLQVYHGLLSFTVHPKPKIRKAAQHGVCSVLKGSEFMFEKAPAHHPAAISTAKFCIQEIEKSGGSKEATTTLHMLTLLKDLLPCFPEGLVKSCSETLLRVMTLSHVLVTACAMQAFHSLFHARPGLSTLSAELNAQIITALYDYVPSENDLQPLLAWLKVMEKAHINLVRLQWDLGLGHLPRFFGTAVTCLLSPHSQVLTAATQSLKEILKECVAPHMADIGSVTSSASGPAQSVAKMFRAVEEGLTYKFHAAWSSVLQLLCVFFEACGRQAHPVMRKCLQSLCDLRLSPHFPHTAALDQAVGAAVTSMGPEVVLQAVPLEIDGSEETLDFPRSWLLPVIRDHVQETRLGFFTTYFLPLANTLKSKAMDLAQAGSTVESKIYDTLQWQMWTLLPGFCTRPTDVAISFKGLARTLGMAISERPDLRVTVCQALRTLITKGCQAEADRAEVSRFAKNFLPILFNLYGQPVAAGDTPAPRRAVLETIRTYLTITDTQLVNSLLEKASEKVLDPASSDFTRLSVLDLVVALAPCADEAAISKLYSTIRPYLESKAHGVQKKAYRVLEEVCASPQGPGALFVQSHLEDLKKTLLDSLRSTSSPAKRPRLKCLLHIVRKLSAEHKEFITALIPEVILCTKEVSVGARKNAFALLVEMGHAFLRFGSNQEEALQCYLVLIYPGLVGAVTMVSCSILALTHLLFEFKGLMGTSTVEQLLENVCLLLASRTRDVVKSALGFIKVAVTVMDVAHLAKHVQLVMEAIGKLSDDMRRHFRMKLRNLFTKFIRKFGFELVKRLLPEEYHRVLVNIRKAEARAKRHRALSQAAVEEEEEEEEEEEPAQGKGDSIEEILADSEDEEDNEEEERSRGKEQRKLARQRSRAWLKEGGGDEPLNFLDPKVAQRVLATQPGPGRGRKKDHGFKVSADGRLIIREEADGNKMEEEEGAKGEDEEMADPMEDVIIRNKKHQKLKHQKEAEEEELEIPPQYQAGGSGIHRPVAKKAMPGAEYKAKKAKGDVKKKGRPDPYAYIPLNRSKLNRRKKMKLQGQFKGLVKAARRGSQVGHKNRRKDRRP"},
  "source": "the supplement of paper PMC12067093",
  "about": "“Discovery and optimisation of a covalent ligand for TRIM25 and its application to targeted protein ubiquitination” (Chemical Science, 2025)",
  "target": "RRP12_Q5JTH9_839_CLLHIVR (UniProt Q5JTH9)",
  "assay": "probe-labelled cysteine peptide fold change vs DMSO (competition) (log2 fold change); higher = less target engagement (more negative = stronger competition)",
  "conditions": "THP-1, incubation time: 4 h",
  "note": "Some of the results follow.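 Note: competitive profiling in live THP-1 cells: cysteine peptides tagged with an iodoacetamide desthiobiotin (IA-DTB) probe, intensity after compound treatment relative to DMSO-treated cells.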",
  "data": [
    {"smiles": "Cc1cc(C(=O)N2CCCN(C(=O)CCl)CC2)ccc1-c1ccccc1", "note": "[compound 10]", "values": [
      {"measurement": "probe-labelled cysteine peptide fold change", "setting": "10 µM", "value": -0.534},
      {"measurement": "probe-labelled cysteine peptide fold change", "setting": "50 µM", "value": -0.0161}
    ]}
  ]
}
